Data as given in PubChem BioAssay AID1259269 (Sanger Institute, 2017).
Screen: 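Check drug-boosted knock-down effects in HCC2998 cells using four distinct siRNAs per gene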 (follow-up of hits). Cells: HCC2998 human colorectal cancer cells. Knock-down reagent: single siRNA against human genes. Challenge: anchor drug BYL719 1 µM, cetuximab 5 µg/ml or trametinib 10 nM; DMSO vehicle as comparison arm. Read-out: 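Replicate-averaged survival relative to non-targeting control siRNA with DMSO or drug (BYL719 1 µM, cetuximab 5 µg/ml, trametinib 10 nM); per-drug synergy score, higher for stronger synthetic lethality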. Reading the numbers: synergy score with BYL719 and synergy score with cetuximab and synergy score with trametinib: higher = stronger synthetic lethal effect with the drug; viability with DMSO: higher = more cells survive the knock-down; viability with trametinib: higher = more cells survive knock-down plus drug. Rule for the call: 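Active if the synergy score exceeds 0.10 for at least one of BYL719, cetuximab or trametinib; otherwise inactive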. Calls: active = synergy with at least one drug; inactive = no synergy with any drug.
In all, the deposit lists 160 reagents; shown is a part drawn at random. Over the whole deposit, 108 (68%) are marked active. 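Viability cannot exceed 1; how synergy scores were computed is not described.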 Viability is capped at 1. Not given: the amount of reagent, the time to read-out.

| gene knocked down | PubChem SID | synergy score with BYL719 | synergy score with cetuximab | synergy score with trametinib | viability with DMSO (fraction of control) | viability with trametinib (fraction of control) | Call |
| --- | --- | --- | --- | --- | --- | --- | --- |
| CSNK2A2 (casein kinase 2 alpha 2) | SID56476699 | 0.193 | 0.18 | 0.251 | 0.842 | 0.222 | active |
| CSNK2A2 (casein kinase 2 alpha 2) | SID56476700 | -0.0926 | -0.0484 | 0.116 | 0.537 | 0.185 | active |
| CSNK2A2 (casein kinase 2 alpha 2) | SID56476701 | 0.217 | 0.205 | 0.325 | 1 | 0.237 | active |
| CSNK2A2 (casein kinase 2 alpha 2) | SID56476702 | 0.0448 | 0.0631 | 0.0632 | 0.253 | 0.0788 | inactive |
| IRAK3 (interleukin 1 receptor associated kinase 3) | SID56476711 | -0.137 | 0.00929 | 0.0571 | 0.323 | 0.124 | inactive |
| IRAK3 (interleukin 1 receptor associated kinase 3) | SID56476712 | -0.0378 | 0.19 | 0.229 | 0.828 | 0.236 | active |
| IRAK3 (interleukin 1 receptor associated kinase 3) | SID56476713 | -0.512 | -0.112 | -0.0489 | 0.44 | 0.296 | inactive |
| IRAK3 (interleukin 1 receptor associated kinase 3) | SID56476714 | -0.232 | -0.198 | -0.0396 | 0.405 | 0.267 | inactive |
| GRK5 (G protein-coupled receptor kinase 5) | SID56476519 | 0.163 | -0.0994 | 0.179 | 0.901 | 0.327 | active |
| GRK5 (G protein-coupled receptor kinase 5) | SID56476520 | -0.289 | -0.473 | -0.0652 | 0.527 | 0.361 | inactive |
| GRK5 (G protein-coupled receptor kinase 5) | SID56476521 | -0.0284 | -0.185 | 0.284 | 0.815 | 0.173 | active |
| GRK5 (G protein-coupled receptor kinase 5) | SID56476522 | -0.325 | -0.0364 | 0.123 | 0.445 | 0.127 | active |
| PLK1 (polo like kinase 1) | SID56475783 | 0.000941 | 0.0399 | 0.00705 | 0.159 | 0.0822 | inactive |
| PLK1 (polo like kinase 1) | SID56475784 | 0.059 | 0.136 | 0.0236 | 0.258 | 0.122 | active |
| PLK1 (polo like kinase 1) | SID56475785 | -0.0663 | -0.0354 | -0.066 | 0.172 | 0.163 | inactive |
| PLK1 (polo like kinase 1) | SID56475786 | -0.00568 | -0.0121 | -0.0258 | 0.113 | 0.0892 | inactive |
| CAMK2N1 (calcium/calmodulin dependent protein kinase II inhibitor 1) | SID134276917 | 0.112 | -0.166 | 0.205 | 0.771 | 0.228 | active |
| CAMK2N1 (calcium/calmodulin dependent protein kinase II inhibitor 1) | SID134276918 | 0.274 | 0.0205 | 0.0801 | 0.684 | 0.304 | active |
| CAMK2N1 (calcium/calmodulin dependent protein kinase II inhibitor 1) | SID134276919 | 0.0577 | 0.102 | 0.0992 | 0.502 | 0.183 | active |
| CAMK2N1 (calcium/calmodulin dependent protein kinase II inhibitor 1) | SID134276920 | -0.112 | 0.0255 | -0.0265 | 0.615 | 0.372 | inactive |
| MARK3 (microtubule affinity regulating kinase 3) | SID56475931 | -0.321 | 0.0662 | 0.106 | 0.768 | 0.325 | active |
| MARK3 (microtubule affinity regulating kinase 3) | SID56475932 | -0.285 | -0.0398 | 0.153 | 0.809 | 0.301 | active |
| MARK3 (microtubule affinity regulating kinase 3) | SID56475933 | -0.206 | 0.116 | 0.238 | 0.898 | 0.267 | active |
| MARK3 (microtubule affinity regulating kinase 3) | SID56475934 | -0.424 | -0.285 | 0.167 | 0.651 | 0.198 | active |
| AK2 (adenylate kinase 2) | SID56477903 | -0.501 | 0.0117 | 0.0447 | 0.565 | 0.273 | inactive |
| AK2 (adenylate kinase 2) | SID56477904 | -0.235 | 0.283 | 0.354 | 0.865 | 0.132 | active |
| AK2 (adenylate kinase 2) | SID56477905 | -0.375 | -0.239 | 0.0138 | 0.708 | 0.383 | inactive |
| AK2 (adenylate kinase 2) | SID56477906 | -0.468 | 0.0225 | 0.0814 | 0.512 | 0.206 | inactive |
| COASY (Coenzyme A synthase) | SID56477723 | -0.0892 | -0.164 | -0.143 | 0.508 | 0.428 | inactive |
| COASY (Coenzyme A synthase) | SID56477724 | -0.0478 | -0.0785 | 0.0246 | 0.31 | 0.149 | inactive |
| COASY (Coenzyme A synthase) | SID56477725 | -0.0811 | -0.124 | -0.0193 | 0.105 | 0.0785 | inactive |
| COASY (Coenzyme A synthase) | SID56477726 | 0.177 | 0.264 | 0.139 | 0.776 | 0.296 | active |
| BRAF (B-Raf proto-oncogene, serine/threonine kinase) | SID56475867 | -0.332 | -0.207 | -0.289 | 0.492 | 0.565 | inactive |
| BRAF (B-Raf proto-oncogene, serine/threonine kinase) | SID56475868 | 0.0807 | -0.0384 | 0.116 | 0.604 | 0.223 | active |
| BRAF (B-Raf proto-oncogene, serine/threonine kinase) | SID56475869 | 0.0032 | -0.0518 | -0.0123 | 0.414 | 0.245 | inactive |
| BRAF (B-Raf proto-oncogene, serine/threonine kinase) | SID56475870 | -0.064 | 0.0816 | -0.0565 | 0.689 | 0.443 | inactive |
| SYK (spleen associated tyrosine kinase) | SID56475471 | -0.0126 | 0.0839 | 0.0626 | 0.86 | 0.42 | inactive |
| SYK (spleen associated tyrosine kinase) | SID56475472 | -0.475 | -0.262 | 0.0847 | 0.594 | 0.249 | inactive |
| SYK (spleen associated tyrosine kinase) | SID56475473 | 0.252 | -0.0949 | 0.353 | 0.817 | 0.106 | active |
| SYK (spleen associated tyrosine kinase) | SID56475474 | -0.116 | 0 | 0.182 | 1 | 0.379 | active |
| ACVR1 (activin A receptor type 1) | SID56476923 | -0.0191 | 0 | 0.24 | 1 | 0.321 | active |
| ACVR1 (activin A receptor type 1) | SID56476924 | -0.0837 | -0.036 | 0.288 | 0.903 | 0.219 | active |
| ACVR1 (activin A receptor type 1) | SID56476925 | -0.0344 | 0 | 0.219 | 1 | 0.342 | active |
| ACVR1 (activin A receptor type 1) | SID152154144 | 0.179 | 0.157 | 0.301 | 0.987 | 0.253 | active |
| EPHA6 (EPH receptor A6) | SID56477259 | 0.0452 | 0.222 | 0.241 | 0.884 | 0.255 | active |
| EPHA6 (EPH receptor A6) | SID56477260 | -0.191 | -0.0456 | -0.0197 | 0.142 | 0.0996 | inactive |
| EPHA6 (EPH receptor A6) | SID56477261 | 0.15 | 0.195 | 0.0683 | 0.434 | 0.175 | active |
| EPHA6 (EPH receptor A6) | SID56477262 | -0.0964 | 0.304 | 0.186 | 0.889 | 0.313 | active |
| RPS6KA4 (ribosomal protein S6 kinase A4) | SID56476603 | -0.116 | 0 | 0.147 | 1 | 0.414 | active |
| RPS6KA4 (ribosomal protein S6 kinase A4) | SID56476604 | -0.231 | -0.222 | 0.137 | 0.778 | 0.3 | active |
| RPS6KA4 (ribosomal protein S6 kinase A4) | SID56476605 | -0.116 | 0 | 0.254 | 1 | 0.308 | active |
| RPS6KA4 (ribosomal protein S6 kinase A4) | SID56476606 | 0.00757 | 0.0747 | 0.0899 | 0.613 | 0.254 | inactive |
| MAPKAPK2 (MAPK activated protein kinase 2) | SID56475927 | 0.129 | 0.0458 | 0.138 | 1 | 0.424 | active |
| MAPKAPK2 (MAPK activated protein kinase 2) | SID56475928 | 0.0502 | 0.0294 | 0.31 | 1 | 0.252 | active |
| MAPKAPK2 (MAPK activated protein kinase 2) | SID56475929 | -0.0649 | -0.0294 | 0.036 | 0.159 | 0.0533 | inactive |
| MAPKAPK2 (MAPK activated protein kinase 2) | SID56475930 | 0.24 | 0.102 | 0.206 | 0.872 | 0.283 | active |

Entries listed so far whose gene name begins with C or c (12):
| gene knocked down | PubChem SID | synergy score with BYL719 | synergy score with cetuximab | synergy score with trametinib | viability with DMSO (fraction of control) | viability with trametinib (fraction of control) | Call |
| --- | --- | --- | --- | --- | --- | --- | --- |
| CSNK2A2 (casein kinase 2 alpha 2) | SID56476699 | 0.193 | 0.18 | 0.251 | 0.842 | 0.222 | active |
| CSNK2A2 (casein kinase 2 alpha 2) | SID56476700 | -0.0926 | -0.0484 | 0.116 | 0.537 | 0.185 | active |
| CSNK2A2 (casein kinase 2 alpha 2) | SID56476701 | 0.217 | 0.205 | 0.325 | 1 | 0.237 | active |
| CSNK2A2 (casein kinase 2 alpha 2) | SID56476702 | 0.0448 | 0.0631 | 0.0632 | 0.253 | 0.0788 | inactive |
| CAMK2N1 (calcium/calmodulin dependent protein kinase II inhibitor 1) | SID134276917 | 0.112 | -0.166 | 0.205 | 0.771 | 0.228 | active |
| CAMK2N1 (calcium/calmodulin dependent protein kinase II inhibitor 1) | SID134276918 | 0.274 | 0.0205 | 0.0801 | 0.684 | 0.304 | active |
| CAMK2N1 (calcium/calmodulin dependent protein kinase II inhibitor 1) | SID134276919 | 0.0577 | 0.102 | 0.0992 | 0.502 | 0.183 | active |
| CAMK2N1 (calcium/calmodulin dependent protein kinase II inhibitor 1) | SID134276920 | -0.112 | 0.0255 | -0.0265 | 0.615 | 0.372 | inactive |
| COASY (Coenzyme A synthase) | SID56477723 | -0.0892 | -0.164 | -0.143 | 0.508 | 0.428 | inactive |
| COASY (Coenzyme A synthase) | SID56477724 | -0.0478 | -0.0785 | 0.0246 | 0.31 | 0.149 | inactive |
| COASY (Coenzyme A synthase) | SID56477725 | -0.0811 | -0.124 | -0.0193 | 0.105 | 0.0785 | inactive |
| COASY (Coenzyme A synthase) | SID56477726 | 0.177 | 0.264 | 0.139 | 0.776 | 0.296 | active |
